Measured values reported in publication PMC6313503.
These are yes or no findings as the source states them, for the method shown. Binding can be weak; no strength is given. Sequences can lack the tags named with a protein. For some assays here: In cells and extracts the contact can be indirect.

T1: 3× FLAG-IKKβ (UniProt O14920)
T1 sequence: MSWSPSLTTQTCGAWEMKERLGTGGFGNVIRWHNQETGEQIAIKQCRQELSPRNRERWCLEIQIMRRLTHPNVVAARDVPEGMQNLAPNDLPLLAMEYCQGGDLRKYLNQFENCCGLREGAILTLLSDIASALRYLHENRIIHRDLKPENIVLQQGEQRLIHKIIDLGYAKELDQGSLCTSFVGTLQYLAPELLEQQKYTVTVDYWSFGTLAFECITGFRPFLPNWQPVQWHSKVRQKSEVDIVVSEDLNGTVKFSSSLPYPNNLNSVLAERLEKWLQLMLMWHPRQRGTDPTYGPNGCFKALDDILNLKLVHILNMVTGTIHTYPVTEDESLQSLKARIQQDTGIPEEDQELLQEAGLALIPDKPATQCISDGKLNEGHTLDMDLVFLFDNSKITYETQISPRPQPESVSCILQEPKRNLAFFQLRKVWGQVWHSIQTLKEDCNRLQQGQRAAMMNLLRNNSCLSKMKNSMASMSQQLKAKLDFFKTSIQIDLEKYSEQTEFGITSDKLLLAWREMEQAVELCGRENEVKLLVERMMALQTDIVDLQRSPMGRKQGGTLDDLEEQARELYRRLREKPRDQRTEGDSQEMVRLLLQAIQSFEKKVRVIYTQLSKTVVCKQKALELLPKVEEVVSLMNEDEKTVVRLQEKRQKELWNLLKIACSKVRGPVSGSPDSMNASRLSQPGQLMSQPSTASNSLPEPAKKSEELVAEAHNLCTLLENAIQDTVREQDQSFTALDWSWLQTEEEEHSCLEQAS

B1: His-IKKβ (enzyme, UniProt O14920 1-756)
chain: T1 sequence

Tests used:
3× FLAG-IKKβ = target: T1, 3× FLAG-IKKβ; assay: co-IP
[1] = target: GST-EHEC NleH1 (enterohemorrhagic Escherichia coli (EHEC)); assay: pull-down; both purified
[2] = target: GST-EHEC NleH2 (enterohemorrhagic Escherichia coli (EHEC)); assay: pull-down; both purified

| Molecule | binding (3× FLAG-IKKβ) | binding [1] | binding [2] |
| --- | --- | --- | --- |
| NleB1-HA | no binding |  |  |
| NleH1-HA | binds |  |  |
| NleH2-HA | binds |  |  |
| B1 |  | binds | binds |
